# Measurements: PubChem BioAssay AID272 (DTP/NCI, 2004)
# The list shows only some results of the screen, not a fair sample: it is rich in T/C values a quarter to a half above the control, in often repeated tests (any T/C) and in doses without a T/C. Other doses and runs of a compound stand elsewhere. T/C is the treated group as % of the vehicle group. Some entries give survivors of the animals treated and no T/C: the source holds a T/C of zero for them, seemingly a mark for toxic or unscored doses. Some survivor counts are full or nearly so, which does not show that the dose was tolerated: survival well below the control is almost never listed, so the zero probably covers shortened survival too. Counts of survivors are from the toxicity check (mostly the fifth day) where no day follows; animals may have died later. Schedule codes are those of the source, taken here to give the interval after Q, in days (D) or hours (H), and the number of doses after X. Some schedule codes hold Z or #, which are not explained here. Some doses were run more than once; the values are given in rising order. For survival time, this PubChem deposit counts one and a half times the control or more as active, and values a quarter to a half above the control carry no call in these data; other NCI protocols may use other cut-offs. Some T/C values carry the count of animals alive at the toxicity check (mostly the fifth day); where none is given, no animal had died by that day.
# System: Lewis lung carcinoma i.m., BDF1 mice, T/C %
# Experiment: NCI In Vivo Anticancer Drug Screen. Data for tumor model Lewis Lung Carcinoma (intramuscular) in B6D2F1 (BDF1) mice
# Procedure, shortened: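 Mice carrying transplantable tumours received test compound. Survival or tumour size was recorded and expressed as the treated-group value (T) divided by the vehicle-treated control-group value (C).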
# [1] = T/C endpoint: median survival time, dose: 50.0 mg/kg/injection, schedule: Q01DX011 (ip), vehicle: other, higher T/C = longer survival
structure (smiles),measurement,setting,value
CC1([CH2][Hg][I])CS(=O)(=O)CC(C)([CH2][Hg][I])O1 (stereo not given),survivor count,"T/C endpoint: mean tumor weight (est.), dose: 40.0 mg/kg/injection, schedule: Q01DX011 (ip), vehicle: saline with Tween-80, higher T/C = larger tumour",4 of 8
same,survivor count,"T/C endpoint: median survival time, dose: 40.0 mg/kg/injection, schedule: Q01DX011 (ip), vehicle: saline with Tween-80, higher T/C = longer survival",4 of 8
same,survivor count,"T/C endpoint: median survival time, dose: 80.0 mg/kg/injection, schedule: Q01DX011 (ip), vehicle: saline with Tween-80, higher T/C = longer survival",0 of 8
Nc1nc2c(c(=O)[nH]1)NC(CCNc1ccc(C(=O)NC(CCC(=O)O)C(=O)O)cc1)CN2 (stereo not given),survivor count,"T/C endpoint: mean tumor weight (est.), dose: 200.0 mg/kg/injection, schedule: Q01DX011 (ip), vehicle: other, higher T/C = larger tumour",3 of 8
same,survivor count,"T/C endpoint: mean tumor weight, dose: 12.5 mg/kg/injection, schedule: Q01DX011 (ip), vehicle: other, higher T/C = larger tumour",5 of 8
same,survivor count,"T/C endpoint: median survival time, dose: 3.13 mg/kg/injection, schedule: Q01DX011 (ip), vehicle: other, higher T/C = longer survival",7 of 8
same,T/C,"T/C endpoint: median survival time, dose: 6.25 mg/kg/injection, schedule: Q01DX011 (ip), vehicle: other, higher T/C = longer survival",129 % of control [6 of 8 alive]
same,survivor count,"T/C endpoint: median survival time, dose: 12.5 mg/kg/injection, schedule: Q01DX011 (ip), vehicle: other, higher T/C = longer survival",5 of 8
same,T/C,"T/C endpoint: median survival time, dose: 25.0 mg/kg/injection, schedule: Q01DX011 (ip), vehicle: other, higher T/C = longer survival",140 % of control [7 of 8 alive]
same,T/C,[1],132 % of control [7 of 8 alive]
same,survivor count,[1],7 of 8
same,survivor count,"T/C endpoint: median survival time, dose: 100.0 mg/kg/injection, schedule: Q01DX011 (ip), vehicle: other, higher T/C = longer survival",6 of 8
same,survivor count,"T/C endpoint: median survival time, dose: 200.0 mg/kg/injection, schedule: Q01DX011 (ip), vehicle: other, higher T/C = longer survival",3 of 8
Cc1ccc2c(C)c3c(ccc4ccccc43)c[n+]2c1,survivor count,"T/C endpoint: mean tumor weight (est.), dose: 10.0 mg/kg/injection, schedule: Q01DX011 (ip), vehicle: saline, higher T/C = larger tumour",1 of 8
same,survivor count,"T/C endpoint: median survival time, dose: 10.0 mg/kg/injection, schedule: Q01DX011 (ip), vehicle: saline, higher T/C = longer survival",1 of 8
same,survivor count,"T/C endpoint: median survival time, dose: 20.0 mg/kg/injection, schedule: Q01DX011 (ip), vehicle: saline, higher T/C = longer survival",0 of 8
Nc1ccn(C2OC(COP(=O)(O)O)C(O)C2O)c(=O)n1 (stereo not given),survivor count,"T/C endpoint: mean tumor weight, dose: 32.6 mg/kg/injection, schedule: Q01DX011 (ip), vehicle: saline, higher T/C = larger tumour",3 of 8
same,survivor count,"T/C endpoint: median survival time, dose: 32.6 mg/kg/injection, schedule: Q01DX011 (ip), vehicle: saline, higher T/C = longer survival",3 of 8
same,survivor count,"T/C endpoint: median survival time, dose: 54.0 mg/kg/injection, schedule: Q01DX011 (ip), vehicle: saline, higher T/C = longer survival",0 of 8
same,survivor count,"T/C endpoint: median survival time, dose: 90.0 mg/kg/injection, schedule: Q01DX011 (ip), vehicle: saline, higher T/C = longer survival",0 of 8
CCN(CC)CCNc1ccc(CO)c2sc3ccccc3c(=O)c12,survivor count,"T/C endpoint: median survival time, dose: 150.0 mg/kg/injection, schedule: Q01DX011 (ip), vehicle: saline, higher T/C = longer survival",1 of 8
same,survivor count,"T/C endpoint: median survival time, dose: 300.0 mg/kg/injection, schedule: Q01DX011 (ip), vehicle: saline, higher T/C = longer survival",0 of 8
Nc1nc(Cl)nc2c1ncn2C1CC(O)C(CO)O1 (stereo not given),survivor count,"T/C endpoint: median survival time, dose: 16.0 mg/kg/injection, schedule: Q01DX Z (ip), vehicle: other, higher T/C = longer survival",8 of 8
same,survivor count,"T/C endpoint: median survival time, dose: 32.0 mg/kg/injection, schedule: Q01DX Z (ip), vehicle: other, higher T/C = longer survival",6 of 8
same,survivor count,"T/C endpoint: median survival time, dose: 64.0 mg/kg/injection, schedule: Q01DX Z (ip), vehicle: other, higher T/C = longer survival",1 of 8 and 8 of 8
same,survivor count,"T/C endpoint: median survival time, dose: 128.0 mg/kg/injection, schedule: Q01DX Z (ip), vehicle: other, higher T/C = longer survival",0 of 8 and 8 of 8
Cc1ccc2c(ccc(/C=C/c3ccc(O)c4ncccc34)[n+]2C)c1,survivor count,"T/C endpoint: mean tumor weight, dose: 75.0 mg/kg/injection, schedule: Q01DX011 (ip), vehicle: saline with Tween-80, higher T/C = larger tumour",2 of 8
same,survivor count,"T/C endpoint: median survival time, dose: 75.0 mg/kg/injection, schedule: Q01DX011 (ip), vehicle: saline with Tween-80, higher T/C = longer survival",2 of 8
same,survivor count,"T/C endpoint: median survival time, dose: 150.0 mg/kg/injection, schedule: Q01DX011 (ip), vehicle: saline with Tween-80, higher T/C = longer survival",0 of 8
same,survivor count,"T/C endpoint: median survival time, dose: 300.0 mg/kg/injection, schedule: Q01DX011 (ip), vehicle: saline with Tween-80, higher T/C = longer survival",0 of 8
